Test results: publication PMC12040169 (PLOS Biology, 2025)
The other results are listed elsewhere or left out.

What follows are molecules tested on T1, CTL2-GFP (C. trachomatis L2/434/Bu, GFP-expressing). Details: bulk GFP, single well; 28.5 h, 10 µM; inhibitor.
T1 construct: L2/434/Bu, GFP-expressing
Design: species or system HeLa; Intracellular C. trachomatis growth in HeLa cells, bulk GFP fluorescence relative to DMSO
For N#Cc1c(NC(=O)c2cc(S(=O)(=O)N3CCCCC3)c(Cl)cc2Cl)sc2c1CCCC2 [CBK264579], the “% of control remaining” value was 114.304%.
For O=C(Nc1nc2ccc(Cl)cc2s1)c1nc(SCc2ccccc2)ncc1Cl [CBK268825], the “% of control remaining” value was 142.487%.
With O=C(O)CCCC(=O)Nc1ccc(C(=O)O)cc1 [CBK261534] the “% of control remaining” value was 100.635%.
In the case of CNC(=O)Nc1ccc(C(C)(C)C)cc1Br [CBK086434], the “% of control remaining” value is reported as 104.372%.
In the case of Cc1nn(CCC#N)c(C)c1[C@@H]1C=C[C@@H](NC(=O)NCc2ccccc2)C1 [CBK289174], the “% of control remaining” value is reported as 117.421%.
With COCC(=O)NC1CCN(CC2(c3cccc(F)c3)CCCC2)CC1 [CBK282546] the “% of control remaining” value was 86.2472%.
With CC(CN1CCCCC1)NC(=O)c1cc(-c2ccncc2)nc2ccc(Br)cc12 (stereo not drawn) [CBK267756] the “% of control remaining” value was 113.717%.
With CCNC(=O)NC[C@H]1C[C@@H]2CCN1C[C@@H]2c1cc(-c2ccc(F)cc2)nn1C [CBK289110] the “% of control remaining” value was 120.749%.
In the case of Cc1noc(C)c1NC(=O)c1cnc2ccccc2n1 [CBK200220], the “% of control remaining” value is reported as 95.7186%.
COc1cccc(NC(=O)N(CCCO)C2CCc3ccccc32)c1 (stereo not drawn) [CBK305397] was tested, and the “% of control remaining” value was 111.903%.
In the case of COc1ccc([C@@]23CC[C@@H](NC(=O)Nc4ccc(OC)c(C(F)(F)F)c4)C[C@@H]2N(C)CC3)cc1OC [CBK051268T], the “% of control remaining” value is reported as 66.1024%.
NC(=O)C1(N2CCCCC2)CCN(C(=S)Nc2ccc(Oc3ccccc3)cc2)CC1 [CBK265862] was tested, and the “% of control remaining” value was 219.023%.
O=C(CCN1CCOCC1)Nc1cc(Cl)cc(Cl)c1 [CBK057021] was tested, and the “% of control remaining” value was 115.538%.
For COc1ccc(CCn2cncc2-c2cn(C)nc2C)cc1C [CBK281814], the “% of control remaining” value was 151.697%.
For COc1ccccc1C1(NC(=O)CCn2cccn2)CCCC1 [CBK283626], the “% of control remaining” value was 106.855%.
With CC(C)C(NC(=O)C1CCC(C(C)(C)C)CC1)C(=O)O (stereo not drawn) [CBK286610] the “% of control remaining” value was 122.373%.
Cc1ccc(OCCC(=O)NCC(c2cccs2)N2CCOCC2)cc1 (stereo not drawn) [CBK305976] was tested, and the “% of control remaining” value was 111.503%.
CSc1nc(O)c(C(c2ccc(C)cc2)c2c(O)nc(SC)nc2O)c(O)n1 [CBK265313] was tested, and the “% of control remaining” value was 130.168%.
For O=S(=O)(Nc1ccc(N2CCNCC2)c2ccccc12)c1cc(Cl)sc1Cl [CBK003116C], the “% of control remaining” value was 71.7731%.
COc1cccc(CN2CCN(C(=O)c3cc(-c4ccncc4)nc4ccc(C)cc34)CC2)c1 [CBK267760] was tested, and the “% of control remaining” value was 117.495%.
COC(=O)c1scc(NS(=O)(=O)c2cccc(C(F)(F)F)c2)c1C(=O)OC [CBK026680] was tested, and the “% of control remaining” value was 101.816%.
In the case of Cc1[nH]c2ccc(F)cc2c1CC(=O)N(C)CCN1CCCCC1 [CBK282748], the “% of control remaining” value is reported as 123.216%.
In the case of COc1cc(CNc2cc(-c3ccccc3N(C)C)ncn2)cc(OC)c1OC [CBK037123], the “% of control remaining” value is reported as 99.3861%.
N#Cc1cccc(S(=O)(=O)N2CCCCC2CO)c1 (stereo not drawn) [CBK051524] was tested, and the “% of control remaining” value was 128.608%.
With COc1cccc(CN2CCCC3(C2)NCCc2c3[nH]c3cc(F)ccc23)c1 (stereo not drawn) [CBK039786] the “% of control remaining” value was 88.7603%.
In the case of COc1ccc(OC)c(-c2nc(Nc3ccccc3C)sc2CC(=O)O)c1 [CBK126811], the “% of control remaining” value is reported as 91.2247%.
CCOC(=O)N1CCC(NS(=O)(=O)c2cc(Br)ccc2OC)CC1 [CBK045463] was tested, and the “% of control remaining” value was 127.689%.
With COc1ccc([C@@]23CC[C@@H](NC(=O)Nc4ccc(F)c(C#N)c4)C[C@@H]2N(C)CC3)cc1OC [CBK051659T] the “% of control remaining” value was 115.653%.
CN(C)S(=O)(=O)c1ccc2c(c1)nc1n2CCC1 [CBK115558] was tested, and the “% of control remaining” value was 139.165%.
For CCC(Sc1ccc2nnc(-c3cccnc3)n2n1)C(=O)O (stereo not drawn) [CBK287623], the “% of control remaining” value was 122.889%.
For CC(=O)C(C(=O)Nc1ccc(F)cc1)C(c1cccc2ccccc12)C(C#N)C#N (stereo not drawn) [CBK262081], the “% of control remaining” value was 113.757%.
O=C(NCC1CCCO1)c1ccccc1Sc1ccc([N+](=O)[O-])cc1Cl (stereo not drawn) [CBK266041] was tested, and the “% of control remaining” value was 121.701%.
COc1ccc(C[C@@]23CC[C@@H](NC(=S)NCc4ccccc4)C[C@@H]2N(C)CC3)cc1 [CBK004262] was tested, and the “% of control remaining” value was 138.528%.
In the case of CN(C)/C=N/c1nc(=O)[nH]c2c1ncn2C1CC(O)C(CO)O1 (stereo not drawn) [CBK201285], the “% of control remaining” value is reported as 135.016%.
In the case of CCC1CCCCN1C(=O)c1sc(C)nc1C (stereo not drawn) [CBK089359], the “% of control remaining” value is reported as 60.8973%.
With COc1cc(-c2nccnc2N[C@@H]2CCN(Cc3ccccc3)C2)cc(OC)c1OC [CBK037651] the “% of control remaining” value was 172.088%.
In the case of COc1ccccc1-c1cnc(Nc2ccc(N3CCOCC3)cc2)c2nccn12 [CBK091230], the “% of control remaining” value is reported as 189.714%.
For Cc1cc(-c2cn3cc(C(=O)N4CCNCC4)nc3c(=O)n2C)c(C)o1 [CBK307325], the “% of control remaining” value was 95.0449%.
With CC(CCN(CCN)C(=O)N1CCC(Cn2cncn2)(C2CCCCC2)CC1)c1ccccc1 (stereo not drawn) [CBK002130C] the “% of control remaining” value was 112.659%.
For O=C(COc1ccccc1)Nc1ccccc1N1CCNCC1 [CBK028279T], the “% of control remaining” value was 115.893%.
CC(C)(C)OC(=O)N1CCC(C2OCc3cc(C(=O)N4CCNC(=O)C4)ccc3O2)CC1 (stereo not drawn) [CBK173277] was tested, and the “% of control remaining” value was 134.687%.
CN1CCN(C(=O)CNC(=O)CNS(=O)(=O)c2ccccc2)CC1 [CBK268651] was tested, and the “% of control remaining” value was 145.854%.
For Nc1cc2cccnc2c(-c2ccc(OC(F)(F)F)cc2)n1 [CBK061926], the “% of control remaining” value was 118.962%.
With Fc1ccc(Oc2nccnc2N2CCN(CCOc3cccnc3)CC2)cc1 [CBK083037T] the “% of control remaining” value was 117.23%.
Cc1cc(C)nc(NC(=O)OCCc2ccncc2)c1 [CBK138233] was tested, and the “% of control remaining” value was 111.032%.
For CCOc1ccc(C(C)(CC(=O)O)C(=O)O)cc1 (stereo not drawn) [CBK261361], the “% of control remaining” value was 90.1547%.
In the case of Cc1nc(S)[nH]c(=O)c1Cc1ccc(F)cc1 [CBK288456], the “% of control remaining” value is reported as 117.621%.
For Cc1ccc(O)c(Nc2ncnc3ccccc23)c1 [CBK266020C], the “% of control remaining” value was 188.939%.
CNS(=O)(=O)c1ccc(CCC(=O)N(C)Cc2cnn(C)c2)cc1 [CBK305712] was tested, and the “% of control remaining” value was 87.455%.
In the case of COc1cccc2cc(C(=O)Nc3cccc(C)n3)oc12 [CBK287659], the “% of control remaining” value is reported as 103.46%.
For COc1cc(C(C)=O)ccc1OCCCN1CCC(O)(C(=O)c2ccc(Cl)c(Cl)c2)CC1 [CBK024875C], the “% of control remaining” value was 86.1712%.
For COc1ccc(C(=O)N(CCC#N)Cc2ccco2)cc1 [CBK304862], the “% of control remaining” value was 97.1233%.
O=C1CC(N2CCC(c3nc4ccccc4s3)CC2)C(=O)N1Cc1ccccc1 (stereo not drawn) [CBK267438] was tested, and the “% of control remaining” value was 141.182%.
For O=C(NCc1ccccc1OC1CCNC1)c1ccccc1 (stereo not drawn) [CBK028301T], the “% of control remaining” value was 135.089%.
With Cc1cccc(-c2ncc(NC(=O)Cc3cccc(Oc4ccccc4)c3)nc2-c2ccc(N)cc2)c1 [CBK037583] the “% of control remaining” value was 110.937%.
CNC(=O)c1ccc(NS(=O)(=O)c2ccc(OC(F)(F)F)cc2)cc1 [CBK043495] was tested, and the “% of control remaining” value was 123.079%.
With CSCCC(C(=O)O)N1C(=O)c2ccc(C(=O)O)cc2C1=O (stereo not drawn) [CBK265135] the “% of control remaining” value was 131.946%.
With COc1cc2c(cc1OC)C1c3ccccc3NC(=O)N1CC2 (stereo not drawn) [CBK284471] the “% of control remaining” value was 150.193%.
For N#Cc1c2ccccc2cn1Cc1cccc(Cl)c1 [CBK019531], the “% of control remaining” value was 130.166%.
In the case of CC1(C)CC(=O)c2cc(C(N)=O)c(=O)n(-c3ccc(Cl)cc3)c2C1 [CBK293936], the “% of control remaining” value is reported as 141.326%.
In the case of Cc1ccc(Nc2nc3c(c(=O)[nH]2)CCCC3)cc1 [CBK287895], the “% of control remaining” value is reported as 84.6224%.
O=C(O)CCC(=O)Nc1ccc(Oc2ccccc2)cc1 [CBK286957] was tested, and the “% of control remaining” value was 145.231%.
For CC(C)CCNC(=O)N1CCN(c2ccccc2)CC1 [CBK155203], the “% of control remaining” value was 118.025%.
In the case of COc1cc(C(O)c2cc3c(cc2CO)OCO3)cc(OC)c1OC (stereo not drawn) [CBK200098], the “% of control remaining” value is reported as 123.424%.
With COC(=O)CSc1nnc(COc2ccc3c(c2)OCO3)n1-c1ccccc1 [CBK266139] the “% of control remaining” value was 117.171%.
In the case of COc1cc(Nc2cncc(-c3cccs3)n2)cc(OC)c1OC [CBK065663], the “% of control remaining” value is reported as 107.665%.
With COc1ccccc1-c1cc(Nc2cccc(N(C)C)c2)ncn1 [CBK091011] the “% of control remaining” value was 136.026%.
CN(C)c1ccc(-c2nnc([C@H]3CCN(C(=O)CCC(=O)O)C3)o2)cc1 [CBK289408] was tested, and the “% of control remaining” value was 106.177%.
With COc1ccc2[nH]cc(CC(=O)N3CCCC4(CCN(Cc5ccccc5)C4)C3)c2c1 (stereo not drawn) [CBK136883] the “% of control remaining” value was 118.425%.
With CN(C)CCN(C)c1nc(-c2ccc(F)c(Cl)c2)cn2ccnc12 [CBK038007] the “% of control remaining” value was 94.899%.
For CCOC(=O)c1ccc(NC(=O)C(C)Sc2nc3ccccc3[nH]2)cc1 (stereo not drawn) [CBK267330], the “% of control remaining” value was 154.781%.
In the case of O=C(O)c1cc(S(=O)(=O)Nc2ccccc2C(=O)O)ccc1Br [CBK262371], the “% of control remaining” value is reported as 126.226%.
In the case of CCN1CCCN(c2ccnc(OCCN3CCOCC3)n2)CC1 [CBK083807], the “% of control remaining” value is reported as 81.5905%.
In the case of CCC(CC)Cn1c(-c2cccnc2)nc2cc(S(=O)(=O)NCCO)ccc21 [CBK003450], the “% of control remaining” value is reported as 139.352%.
In the case of COc1ccccc1Nc1nc(N)nc(CSc2nc3ccccc3s2)n1 [CBK266747], the “% of control remaining” value is reported as 159.522%.
O=C(Nc1ccc(-c2ccoc2)cc1C(=O)O)OCc1ccc([N+](=O)[O-])cc1 [CBK000141D] was tested, and the “% of control remaining” value was 123.601%.
For O=C(c1ccco1)N1CCN(S(=O)(=O)c2ccc(Cl)cc2)CC1 [CBK068411], the “% of control remaining” value was 91.3445%.
For CC(=O)N(C)c1ncc(Br)cc1C(=O)N(C)C [CBK076533], the “% of control remaining” value was 196.881%.
